PubChem BioAssay AID1053208 | Peter MacCallum Cancer Centre – 2014

Screen: 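Genes whose silencing cuts survival of bone tumour cells only with doxorubicin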 (primary screen)
Cells: mouse osteosarcoma cells, early-passage culture from an engineered mouse model of fibroblastic bone tumour
Knock-down reagent: siRNA pool against mouse genes, 40 nM
Duration: about 120 h (48 h before drug, then 72 h with drug)
Treatment: doxorubicin 100 nM for 72 h, roughly 30-40% inhibitory dose
Read-out: 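Viability read as ATP luminescence after 72 h of 100 nM doxorubicin or none, duplicate wells averaged, scaled to non-targeting siRNA, then expressed as robust z-scores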
Direction: viability z-score with doxorubicin: higher = more viable cells under doxorubicin; viability z-score without drug: higher = more viable cells with knock-down alone
Rule for the call: 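a pool counts as active when its viability z-score with doxorubicin is -2 or below and its z-score without drug lies between -2 and 2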
The whole screen tested about 17,000 reagents; this is an unselected part. 788 of them (4.7%) were called active. 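Calls rest on z-score classes alone; an extra cut-off of viability at most 70% of control was not applied to them.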 Further read-outs or replicates are left out here.

target,combined z-score class,viability z-score with doxorubicin,viability z-score without drug,activity call
Rfx4,no change with or without drug,-0.22,0.67,inactive
Defb38,no change with or without drug,1.24,-1.01,inactive
Neurod6,no change with or without drug,-0.34,-0.84,inactive
Pnma1,no change with or without drug,0.9,0.17,inactive
Card14,no change with or without drug,-1.24,-1.18,inactive
Nudt8,high cell count with doxorubicin only,2.14,0,inactive
Ruvbl1,no change with or without drug,-0.45,-0.51,inactive
Cfhr1,low cell count with doxorubicin only,-2.25,-0.67,active
Stim1,high cell count without drug only,-1.12,2.19,inactive
Slit3,high cell count without drug only,1.35,2.36,inactive
Ly6g6c,no change with or without drug,0.79,-0.51,inactive
Taf1b,no change with or without drug,-0.9,-1.18,inactive
Pgam1,no change with or without drug,1.24,1.85,inactive
Trappc5,no change with or without drug,0,0,inactive
Ofcc1,no change with or without drug,1.24,-0.84,inactive
Pcp4,no change with or without drug,-1.35,0.51,inactive
Kctd9,no change with or without drug,-0.9,-0.51,inactive
Or11q2,low cell count without drug only,-1.8,-2.36,inactive
Gab2,no change with or without drug,0,0.84,inactive
Saxo4,low cell count without drug only,-1.57,-4.22,inactive

Reformatted: entries from further up.
Ofcc1 | combined z-score class = no change with or without drug; viability z-score with doxorubicin = 1.24; viability z-score without drug = -0.84; activity call = inactive
Pcp4 | combined z-score class = no change with or without drug; viability z-score with doxorubicin = -1.35; viability z-score without drug = 0.51; activity call = inactive
